Assay results reported in patent publication US6930093B2, “Use of ribofuranose derivatives against inflammatory bowel diseases” (Valeant Research & Development, priority 2003, dated 2005).
Values joined by “and” are separate entries in the source; they are usually repeats but may differ in a detail not shown here. Identical values can stand only once.

Test system: DNBS induced distal colitis in Wistar rats
Assay: DNBS (2,4 dinitrobenzenesulfonic acid) induced distal colitis in Wistar rats as a model for inflammatory bowel disease
Assay type: in vivo, Wistar derived female rats
Conditions: ribavirin 100 mg/kg × 7 or sulfasalazine 300 mg/kg × 7 p.o.
Protocol: Wistar derived female rats were provided by MDS Pharma Services Taiwan Ltd. and housed in APEC^R cages. All animals were maintained in a controlled temperature (22° C.-24° C.) and humidity (60-80%) environment with 12 hours light dark cycles for at least one week in the laboratory prior to use. Free access to standard lab chow (LabDiet, Rodent Diet, PMI Nutrition International, USA) and tap water was granted. All aspects of the work including housing, experimentation and disposal of animals were performed in general accordance with the International Guiding Principles for Biomedical Research Involving Animals (CIOMSI Publication No. ISBN 9290360194, 1985).
[…] (TCI, Japan), absolute ethanol (Merck, Germany), sodium chloride (Wako, Japan), sulfasalazine (Sigma, USA) and Tween 80 (Wako, Japan).
Groups of 3 Wistar derived female rats weighing 180±20 grams and fasted for 24 hours were used. Distal colitis was induced by intra-colonic instillation of 2,4-ninitrobenzene sulfonic acid (DNBS; 30 mg in 0.5 mL ethanol 30%), which was followed by injection of air (2 mL) through a cannula to ensure that the solution remained in the colon. […] Two control groups were similarly treated with vehicle alone while challenged with either DNBS (vehicle-control) or 0.9% NaCl solution (blank-control). The animals were sacrificed 24 hours after the final dosing of test compound and each colon was removed and weighed. During the experiment, the presence of diarrhea was recorded daily. Furthermore, when the abdominal cavity was opened, adhesions between the colon and other organs were first noted; presence of colonic ulceration was evaluated after removal and weighing of each colon. The colon-to-body weight (BW) ratio was then calculated for each animal according to the formula: Colon [(g)/BW(g)]×100%. The “Net” increase in the ratio of vehicle-control+DNBS group relative to vehicle-control group was used as a base for comparison with test substance treated groups and expressed as percent decrease. A 30% or more (≧30%) reduction in colon-to-body weight ratio, relative to the vehicle-treated control group, is considered significant.

[1] = individual animals (N 1-3), DNBS-challenged rats

SMILES | B.W. (g) Day 1 (group Avg of 3 rats) | B.W. (g) Day 1 [1]
NC(=O)c1ncn([C@@H]2O[C@H](CO)[C@@H](O)[C@H]2O)n1 [Ribavirin, 1-β-D-ribofuranosyl-1H-1,2,4-triazole-3-carboxamide] | 183 g | 180 g (2×) and 190 g
O=C(O)c1cc(/N=N/c2ccc(S(=O)(=O)Nc3ccccn3)cc2)ccc1O [Sulfasalazine, sulfasalazine] | 183 g | 185 g (2×) and 180 g
